Results as given in article PMC7819943, “Rice protein-binding microarrays: a tool to detect cis-acting elements near promoter regions in rice”.
The list shows a part of the results.

Sequences of proteins named here, by UniProt entry; tags and fusion partners are left off.
UniProt Q0JBA9, entry or part of it: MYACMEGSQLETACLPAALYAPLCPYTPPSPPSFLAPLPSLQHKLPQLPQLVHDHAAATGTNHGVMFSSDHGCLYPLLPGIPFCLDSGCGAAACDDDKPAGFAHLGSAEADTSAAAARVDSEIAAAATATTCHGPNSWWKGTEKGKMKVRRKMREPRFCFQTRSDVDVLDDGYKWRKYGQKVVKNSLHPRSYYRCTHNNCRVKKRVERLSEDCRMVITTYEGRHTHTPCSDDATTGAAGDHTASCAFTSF

The sequences below were run against OsWRKY34 (Oryza sativa, UniProt Q0JBA9 1-250) (assay: protein-binding microarray (RPBM); PBS, 2% BSA, 51.3 ng/ul salmon testes DNA, 50 uM zinc acetate, 200 nM TF, 25 C, 1 h; high values mean tight binding). Settings: protein: recombinant; tags: N-terminal polyhistidine and DsRed monomer fusion (pET32a); label: CyDye5-dUTP incorporated in the synthesized complementary strand; 3' TTTTT single-stranded linker to array surface; dsDNA, one strand shown.
How it was run: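 For the binding signal, per-feature fluorescence intensity was read in arbitrary units on an Axon 4000B scanner. Before scanning, a 2% BSA-blocked custom Agilent array made double-stranded with Cy5-dUTP was washed after 1 h at 25 °C with 200 nM protein and 50 µM zinc acetate. The proteins were Ni–NTA-purified transcription factors with N-terminal polyhistidine and DsRed fusions, expressed in E. coli BL21-CodonPlus.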

Sequence | binding signal
TCTTTTTTTTTGATTTGTTATTTCACTTGCGCCAGATTTTCGGAGTCACCTAGTGCAG | 11400 fluorescence intensity (a.u.)
CAAAATCCAGCGGTGGGACGTTCTCGGGGTATACTTTCATCGGAGTCACCTAGTGCAG | 9440 fluorescence intensity (a.u.)
ACTCCCAACTTTCATACCGAAAATTTTATCTTCAAACTATCGGAGTCACCTAGTGCAG | 10200 fluorescence intensity (a.u.)
ATGAGTTCTACGACGTTCTTATTGACTAGTCCATCGTTCCCGGAGTCACCTAGTGCAG | 9500 fluorescence intensity (a.u.)
AGCCTATTTTGCCTCCGTCTCCTCTTGTCCCTGGACGAATCGGAGTCACCTAGTGCAG | 9560 fluorescence intensity (a.u.)
CCCCGACGACCAACTGCTCTCAAAACTGAACTCCTCACCTCGGAGTCACCTAGTGCAG | 10600 fluorescence intensity (a.u.)
TCTTTCTTCCATTGCACCTAGCTTTCATCTTCTTCTCTTCCGGAGTCACCTAGTGCAG | 14200 fluorescence intensity (a.u.)
ATAAATTTAGTCAAACTTGAAACAATTTAACTTTGGCTAACGGAGTCACCTAGTGCAG | 8920 fluorescence intensity (a.u.)
CCGTCGTGCTGCGCCCTTCAATTTGTTGGTCTCGCTCGCCCGGAGTCACCTAGTGCAG | 8490 fluorescence intensity (a.u.)
CCTGATTTGGAGGTTTTGTTGGGTGCAGACCATTCAGGGGCGGAGTCACCTAGTGCAG | 8290 fluorescence intensity (a.u.)
CGATGACAAGTTGACGCACCTTGGGTGTACTTTTTCCTTCCGGAGTCACCTAGTGCAG | 8280 fluorescence intensity (a.u.)
ATGTCTCACAACGTTCATGTATTCCACCCAGGGCCCAGTTCGGAGTCACCTAGTGCAG | 8300 fluorescence intensity (a.u.)
CTTTTTCTTGTCCTTTTTCTTATTGCGCTGCTCAGTTGCTCGGAGTCACCTAGTGCAG | 10000 fluorescence intensity (a.u.)
TCATTTATTTTCCAGTTCCGCCTCCGTTTCAACCCTCTCTCGGAGTCACCTAGTGCAG | 9010 fluorescence intensity (a.u.)
CCGTTCTCTGCTGCTACATCTCGTCGCCTCGCCGGCGCCACGGAGTCACCTAGTGCAG | 12300 fluorescence intensity (a.u.)
TTTTCCTATTTTTTCTTGTAGCGAAGTCCACTAAATTTAACGGAGTCACCTAGTGCAG | 10800 fluorescence intensity (a.u.)
CACCAAACCACCACCACTCTCCTCGGCTTGTGTCGCGTGTCGGAGTCACCTAGTGCAG | 11300 fluorescence intensity (a.u.)
GTTCCATATTACTTGTCGCTTTGAGTTTTTTTAAAAAAAACGGAGTCACCTAGTGCAG | 10500 fluorescence intensity (a.u.)
TCCTTGCGGTGCTCATGCTTTCCCTTCTTAGGTGTCGCGTCGGAGTCACCTAGTGCAG | 8210 fluorescence intensity (a.u.)
CTCTCTCCATTCCATTTTAAGTTTTTATATACAACGTTTACGGAGTCACCTAGTGCAG | 8950 fluorescence intensity (a.u.)
TTTTTTCTTACACTATTTTACCACTCGTCTTATTTAAAAACGGAGTCACCTAGTGCAG | 8100 fluorescence intensity (a.u.)

Retrieved one by one from the list above:
Sequence | binding signal
TCCTTGCGGTGCTCATGCTTTCCCTTCTTAGGTGTCGCGTCGGAGTCACCTAGTGCAG | 8210 fluorescence intensity (a.u.)
CCCCGACGACCAACTGCTCTCAAAACTGAACTCCTCACCTCGGAGTCACCTAGTGCAG | 10600 fluorescence intensity (a.u.)

Further results

Sequence | binding signal
TCGGTTTCCGCTTTCCATGCCGCGATCGCCATTTGTTTTTCGGAGTCACCTAGTGCAG | 10800 fluorescence intensity (a.u.)
GCTTTCCGATCGTTTCCCGGCTCCATCCAATCCACTAGTTCGGAGTCACCTAGTGCAG | 10700 fluorescence intensity (a.u.)
CCGTCGTCTATCTGTCTGCAGGTTATCTGCGTCGTCGTCTCGGAGTCACCTAGTGCAG | 8320 fluorescence intensity (a.u.)
ACATAACACACCCGCTCAACATGACCGCGGCGCGTCCCTTCGGAGTCACCTAGTGCAG | 9180 fluorescence intensity (a.u.)
CCATTTTACTTTCTTAGGCTCTCTTACCATTGTCCCTACTCGGAGTCACCTAGTGCAG | 12800 fluorescence intensity (a.u.)
TGCTAATGGCCTGCTCCGTTTTCCGTGCCAGAGGGGTTATCGGAGTCACCTAGTGCAG | 13500 fluorescence intensity (a.u.)
AGAACCATTGGCCCCACCTGCCAGCCACCATCCCCATATCCGGAGTCACCTAGTGCAG | 8820 fluorescence intensity (a.u.)
TACTCTGCTCGATCGAATCGCTAGCTTTCTTCTTCTTCTTCGGAGTCACCTAGTGCAG | 13600 fluorescence intensity (a.u.)
GGACCTACCCAAGTACGTGGACCCGCTGCCGCAGATGGCCCGGAGTCACCTAGTGCAG | 8760 fluorescence intensity (a.u.)
TGTCAATTTTCTCACTCTAAAGAGTCCCTTTCAGTACAGTCGGAGTCACCTAGTGCAG | 8100 fluorescence intensity (a.u.)
TCATCCCTTTCCAAACATTGCCAGACTGCCTAACTGTACACGGAGTCACCTAGTGCAG | 8160 fluorescence intensity (a.u.)
AAAACAACAAGAGGACGCGAGGGGTCGGGGTGGGAGAGGGCGGAGTCACCTAGTGCAG | 9940 fluorescence intensity (a.u.)
CGCACGCACGCACCGTCCTCGCGCCGGCTGCCCAACCCAACGGAGTCACCTAGTGCAG | 8960 fluorescence intensity (a.u.)
CTCATTTTAGTTGGTCAATGTCTTTTGTTAAGTCTTGAAACGGAGTCACCTAGTGCAG | 8540 fluorescence intensity (a.u.)
ACCGCTCCCGCCACCGCCACCCTCTCCCTCGTCGCATCGCCGGAGTCACCTAGTGCAG | 8270 fluorescence intensity (a.u.)
ATTGGCACGCTATATGTCATCTCTGGGGTTGGTGGTAGCTCGGAGTCACCTAGTGCAG | 10700 fluorescence intensity (a.u.)
CATGCTAGTGGGCCCACATTTTTTTTTGTGTGAATGACTACGGAGTCACCTAGTGCAG | 8360 fluorescence intensity (a.u.)
CGCGTTTGTCAGATACCTAATTCGCCATGTCTTTCCTTTACGGAGTCACCTAGTGCAG | 10400 fluorescence intensity (a.u.)
AGCACCTATAAATTCCATTCACCAGCTTCACTATGATTCACGGAGTCACCTAGTGCAG | 8510 fluorescence intensity (a.u.)
AACCTCTCTATCCGCCAAAAACCCTACCCGCTCCACACGACGGAGTCACCTAGTGCAG | 8940 fluorescence intensity (a.u.)
AGAGGTTCTGAACTCATCTTTGCTTGATTTGACCATCCTACGGAGTCACCTAGTGCAG | 8590 fluorescence intensity (a.u.)

2 entries from above, with tabs.
Sequence	binding signal
ACATAACACACCCGCTCAACATGACCGCGGCGCGTCCCTTCGGAGTCACCTAGTGCAG	9180 fluorescence intensity (a.u.)
CCATTTTACTTTCTTAGGCTCTCTTACCATTGTCCCTACTCGGAGTCACCTAGTGCAG	12800 fluorescence intensity (a.u.)
